This is one part of the list.
compound: C1COCCN1CCN2C3=CC=CC=C3N=C2NC(=O)C4=CC(=CC=C4)[N+](=O)[O-] [IRAK-1-4 Inhibitor I]; experiment: log2 fold change, soluble protein after heating vs DMSO (PISA); higher = thermal stabilisation; K562 lysate, 10 uM; active = over 0.2 and 3.5 SD of the protein, either way, in both replicates (recomputed)
Method in brief: (§1)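 K562 pellets were dounce-homogenised in PBS pH 7.4 containing 1 mM MgCl2, and the crude extract, at 1 mg/mL protein, was exposed to 10 μM compound for 30 min. Aliquots were heated for 3 min across 48°C-58°C, pooled, brought to 0.5% NP-40 at 4°C and spun at 21,000xg for 90 min, with the supernatant taken as soluble protein. TMTpro 16plex LC-MS/MS with equalised channel sums quantified that protein. Values are log-two fold changes in thermal stability relative to solvent controls, taken from duplicates.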

Sequences of proteins named here, by UniProt entry; tags and fusion partners are left off. A change or cut given only in a name is not applied to a line headed by its entry.
UniProt Q04206, whole entry, looked up: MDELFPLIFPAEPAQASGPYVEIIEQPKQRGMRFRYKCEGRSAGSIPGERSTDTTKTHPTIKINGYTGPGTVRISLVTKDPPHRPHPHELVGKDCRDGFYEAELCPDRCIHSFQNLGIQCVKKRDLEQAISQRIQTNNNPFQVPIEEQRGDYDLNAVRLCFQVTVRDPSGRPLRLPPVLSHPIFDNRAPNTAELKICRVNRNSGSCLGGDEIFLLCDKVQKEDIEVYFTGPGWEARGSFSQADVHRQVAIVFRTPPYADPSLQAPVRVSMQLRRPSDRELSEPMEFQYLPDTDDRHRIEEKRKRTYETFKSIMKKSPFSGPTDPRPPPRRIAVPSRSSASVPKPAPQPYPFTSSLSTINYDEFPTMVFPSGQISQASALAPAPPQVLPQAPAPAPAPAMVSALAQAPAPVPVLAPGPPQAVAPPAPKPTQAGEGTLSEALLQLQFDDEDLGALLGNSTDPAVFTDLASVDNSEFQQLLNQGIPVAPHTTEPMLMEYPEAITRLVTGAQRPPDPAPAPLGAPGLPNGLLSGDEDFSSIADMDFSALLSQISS
UniProt Q02161: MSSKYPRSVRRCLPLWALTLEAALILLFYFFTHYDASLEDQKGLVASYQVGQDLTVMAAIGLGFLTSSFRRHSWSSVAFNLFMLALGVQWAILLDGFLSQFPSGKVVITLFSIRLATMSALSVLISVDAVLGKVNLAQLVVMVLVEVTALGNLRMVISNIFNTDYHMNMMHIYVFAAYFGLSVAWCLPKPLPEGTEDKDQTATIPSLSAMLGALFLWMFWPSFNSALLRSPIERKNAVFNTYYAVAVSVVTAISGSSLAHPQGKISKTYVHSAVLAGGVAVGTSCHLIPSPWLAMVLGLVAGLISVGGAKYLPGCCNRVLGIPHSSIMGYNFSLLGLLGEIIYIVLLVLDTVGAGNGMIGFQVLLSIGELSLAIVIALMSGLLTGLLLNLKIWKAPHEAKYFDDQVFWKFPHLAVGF
UniProt Q15291, whole entry, looked up: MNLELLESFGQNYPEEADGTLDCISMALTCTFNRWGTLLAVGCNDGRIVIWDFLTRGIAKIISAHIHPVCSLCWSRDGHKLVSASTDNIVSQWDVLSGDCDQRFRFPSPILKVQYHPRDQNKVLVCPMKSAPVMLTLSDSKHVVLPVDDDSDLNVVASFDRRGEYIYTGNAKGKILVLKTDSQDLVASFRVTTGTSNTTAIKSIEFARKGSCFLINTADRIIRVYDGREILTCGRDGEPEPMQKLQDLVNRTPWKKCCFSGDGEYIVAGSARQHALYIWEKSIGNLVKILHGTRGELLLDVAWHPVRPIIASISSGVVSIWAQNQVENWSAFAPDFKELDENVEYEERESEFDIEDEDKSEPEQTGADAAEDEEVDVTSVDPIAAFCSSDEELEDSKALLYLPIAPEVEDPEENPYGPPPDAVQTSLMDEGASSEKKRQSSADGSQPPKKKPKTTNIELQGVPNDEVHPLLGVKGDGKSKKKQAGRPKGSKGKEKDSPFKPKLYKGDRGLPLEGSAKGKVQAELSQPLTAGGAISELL
UniProt Q09028, whole entry, looked up: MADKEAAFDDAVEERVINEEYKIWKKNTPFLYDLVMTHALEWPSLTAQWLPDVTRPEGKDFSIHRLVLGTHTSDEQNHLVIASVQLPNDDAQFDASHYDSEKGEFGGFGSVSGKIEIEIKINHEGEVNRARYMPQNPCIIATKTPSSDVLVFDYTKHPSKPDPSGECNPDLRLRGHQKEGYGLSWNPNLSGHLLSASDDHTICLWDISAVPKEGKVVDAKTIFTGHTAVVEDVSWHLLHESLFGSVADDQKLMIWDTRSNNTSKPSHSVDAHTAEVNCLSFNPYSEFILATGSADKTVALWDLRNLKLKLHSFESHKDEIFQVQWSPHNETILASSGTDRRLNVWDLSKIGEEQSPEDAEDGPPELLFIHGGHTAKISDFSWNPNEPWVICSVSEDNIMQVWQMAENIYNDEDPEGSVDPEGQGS
UniProt Q08999: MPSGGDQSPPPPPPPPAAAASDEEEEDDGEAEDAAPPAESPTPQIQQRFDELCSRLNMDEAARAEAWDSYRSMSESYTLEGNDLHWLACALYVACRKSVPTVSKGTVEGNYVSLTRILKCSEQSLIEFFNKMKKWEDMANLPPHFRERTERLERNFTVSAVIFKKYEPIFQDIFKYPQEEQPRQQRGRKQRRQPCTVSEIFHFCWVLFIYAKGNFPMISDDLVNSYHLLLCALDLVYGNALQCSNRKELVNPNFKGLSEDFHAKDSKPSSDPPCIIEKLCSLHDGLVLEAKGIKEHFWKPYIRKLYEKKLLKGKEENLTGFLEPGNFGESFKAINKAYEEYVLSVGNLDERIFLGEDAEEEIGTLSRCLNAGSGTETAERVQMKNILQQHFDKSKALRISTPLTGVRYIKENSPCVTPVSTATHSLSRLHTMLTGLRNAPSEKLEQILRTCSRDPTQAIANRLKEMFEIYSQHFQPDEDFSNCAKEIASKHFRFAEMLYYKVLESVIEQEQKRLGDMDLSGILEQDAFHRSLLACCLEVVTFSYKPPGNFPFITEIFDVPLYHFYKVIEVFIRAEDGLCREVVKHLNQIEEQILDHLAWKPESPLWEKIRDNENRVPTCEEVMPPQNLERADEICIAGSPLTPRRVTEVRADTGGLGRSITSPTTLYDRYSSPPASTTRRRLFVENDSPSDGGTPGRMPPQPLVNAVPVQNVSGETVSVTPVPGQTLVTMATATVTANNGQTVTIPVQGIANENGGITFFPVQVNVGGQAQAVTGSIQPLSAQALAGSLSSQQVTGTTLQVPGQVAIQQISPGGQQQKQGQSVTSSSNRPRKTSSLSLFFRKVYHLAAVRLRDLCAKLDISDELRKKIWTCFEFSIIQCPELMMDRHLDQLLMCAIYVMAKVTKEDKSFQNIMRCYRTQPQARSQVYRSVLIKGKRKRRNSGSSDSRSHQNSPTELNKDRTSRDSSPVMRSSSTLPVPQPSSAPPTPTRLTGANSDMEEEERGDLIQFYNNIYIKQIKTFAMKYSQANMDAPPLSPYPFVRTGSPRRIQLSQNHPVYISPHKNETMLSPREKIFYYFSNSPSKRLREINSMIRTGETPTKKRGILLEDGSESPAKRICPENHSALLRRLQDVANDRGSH
UniProt Q9HBD1: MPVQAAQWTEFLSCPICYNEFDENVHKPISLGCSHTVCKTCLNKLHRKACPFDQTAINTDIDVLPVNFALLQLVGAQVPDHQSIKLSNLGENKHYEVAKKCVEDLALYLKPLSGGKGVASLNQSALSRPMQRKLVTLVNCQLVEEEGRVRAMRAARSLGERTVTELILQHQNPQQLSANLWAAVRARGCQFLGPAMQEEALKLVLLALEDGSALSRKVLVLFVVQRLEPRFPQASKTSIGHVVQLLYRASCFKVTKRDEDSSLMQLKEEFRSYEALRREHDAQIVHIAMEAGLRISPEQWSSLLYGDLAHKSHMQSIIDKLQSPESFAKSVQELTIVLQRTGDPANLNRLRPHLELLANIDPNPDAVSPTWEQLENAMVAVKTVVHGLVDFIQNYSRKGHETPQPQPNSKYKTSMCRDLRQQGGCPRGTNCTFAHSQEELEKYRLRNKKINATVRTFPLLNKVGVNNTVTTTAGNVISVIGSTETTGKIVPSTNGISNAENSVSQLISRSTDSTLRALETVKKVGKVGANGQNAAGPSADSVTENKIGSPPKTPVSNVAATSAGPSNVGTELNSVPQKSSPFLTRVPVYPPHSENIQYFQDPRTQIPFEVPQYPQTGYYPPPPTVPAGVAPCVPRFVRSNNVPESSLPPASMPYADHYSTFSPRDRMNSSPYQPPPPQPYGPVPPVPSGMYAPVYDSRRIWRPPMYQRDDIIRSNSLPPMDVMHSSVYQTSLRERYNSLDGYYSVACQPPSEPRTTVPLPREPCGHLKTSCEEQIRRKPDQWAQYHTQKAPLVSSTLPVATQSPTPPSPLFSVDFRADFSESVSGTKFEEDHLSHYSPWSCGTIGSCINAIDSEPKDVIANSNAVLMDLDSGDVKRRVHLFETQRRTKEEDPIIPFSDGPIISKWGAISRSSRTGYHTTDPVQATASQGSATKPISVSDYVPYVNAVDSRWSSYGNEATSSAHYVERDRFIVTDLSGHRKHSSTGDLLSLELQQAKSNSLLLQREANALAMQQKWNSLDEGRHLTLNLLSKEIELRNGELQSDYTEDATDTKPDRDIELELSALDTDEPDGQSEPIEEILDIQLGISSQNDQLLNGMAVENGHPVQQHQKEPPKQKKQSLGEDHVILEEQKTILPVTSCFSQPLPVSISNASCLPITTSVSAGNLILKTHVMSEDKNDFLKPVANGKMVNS
UniProt Q8IZ40: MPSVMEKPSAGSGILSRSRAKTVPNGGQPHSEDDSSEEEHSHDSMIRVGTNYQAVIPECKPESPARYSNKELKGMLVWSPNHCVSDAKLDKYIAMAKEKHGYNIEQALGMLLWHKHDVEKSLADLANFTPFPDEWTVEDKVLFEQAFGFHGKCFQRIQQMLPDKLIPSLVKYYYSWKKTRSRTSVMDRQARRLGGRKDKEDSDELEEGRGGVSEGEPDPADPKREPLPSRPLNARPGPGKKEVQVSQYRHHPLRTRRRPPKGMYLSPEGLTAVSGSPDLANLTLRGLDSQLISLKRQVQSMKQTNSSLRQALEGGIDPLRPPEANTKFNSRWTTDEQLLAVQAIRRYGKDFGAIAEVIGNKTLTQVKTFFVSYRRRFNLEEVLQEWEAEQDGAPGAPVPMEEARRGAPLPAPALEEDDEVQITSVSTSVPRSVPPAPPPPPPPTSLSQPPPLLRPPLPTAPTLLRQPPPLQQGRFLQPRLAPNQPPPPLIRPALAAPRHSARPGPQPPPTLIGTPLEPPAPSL
UniProt Q9HCM1: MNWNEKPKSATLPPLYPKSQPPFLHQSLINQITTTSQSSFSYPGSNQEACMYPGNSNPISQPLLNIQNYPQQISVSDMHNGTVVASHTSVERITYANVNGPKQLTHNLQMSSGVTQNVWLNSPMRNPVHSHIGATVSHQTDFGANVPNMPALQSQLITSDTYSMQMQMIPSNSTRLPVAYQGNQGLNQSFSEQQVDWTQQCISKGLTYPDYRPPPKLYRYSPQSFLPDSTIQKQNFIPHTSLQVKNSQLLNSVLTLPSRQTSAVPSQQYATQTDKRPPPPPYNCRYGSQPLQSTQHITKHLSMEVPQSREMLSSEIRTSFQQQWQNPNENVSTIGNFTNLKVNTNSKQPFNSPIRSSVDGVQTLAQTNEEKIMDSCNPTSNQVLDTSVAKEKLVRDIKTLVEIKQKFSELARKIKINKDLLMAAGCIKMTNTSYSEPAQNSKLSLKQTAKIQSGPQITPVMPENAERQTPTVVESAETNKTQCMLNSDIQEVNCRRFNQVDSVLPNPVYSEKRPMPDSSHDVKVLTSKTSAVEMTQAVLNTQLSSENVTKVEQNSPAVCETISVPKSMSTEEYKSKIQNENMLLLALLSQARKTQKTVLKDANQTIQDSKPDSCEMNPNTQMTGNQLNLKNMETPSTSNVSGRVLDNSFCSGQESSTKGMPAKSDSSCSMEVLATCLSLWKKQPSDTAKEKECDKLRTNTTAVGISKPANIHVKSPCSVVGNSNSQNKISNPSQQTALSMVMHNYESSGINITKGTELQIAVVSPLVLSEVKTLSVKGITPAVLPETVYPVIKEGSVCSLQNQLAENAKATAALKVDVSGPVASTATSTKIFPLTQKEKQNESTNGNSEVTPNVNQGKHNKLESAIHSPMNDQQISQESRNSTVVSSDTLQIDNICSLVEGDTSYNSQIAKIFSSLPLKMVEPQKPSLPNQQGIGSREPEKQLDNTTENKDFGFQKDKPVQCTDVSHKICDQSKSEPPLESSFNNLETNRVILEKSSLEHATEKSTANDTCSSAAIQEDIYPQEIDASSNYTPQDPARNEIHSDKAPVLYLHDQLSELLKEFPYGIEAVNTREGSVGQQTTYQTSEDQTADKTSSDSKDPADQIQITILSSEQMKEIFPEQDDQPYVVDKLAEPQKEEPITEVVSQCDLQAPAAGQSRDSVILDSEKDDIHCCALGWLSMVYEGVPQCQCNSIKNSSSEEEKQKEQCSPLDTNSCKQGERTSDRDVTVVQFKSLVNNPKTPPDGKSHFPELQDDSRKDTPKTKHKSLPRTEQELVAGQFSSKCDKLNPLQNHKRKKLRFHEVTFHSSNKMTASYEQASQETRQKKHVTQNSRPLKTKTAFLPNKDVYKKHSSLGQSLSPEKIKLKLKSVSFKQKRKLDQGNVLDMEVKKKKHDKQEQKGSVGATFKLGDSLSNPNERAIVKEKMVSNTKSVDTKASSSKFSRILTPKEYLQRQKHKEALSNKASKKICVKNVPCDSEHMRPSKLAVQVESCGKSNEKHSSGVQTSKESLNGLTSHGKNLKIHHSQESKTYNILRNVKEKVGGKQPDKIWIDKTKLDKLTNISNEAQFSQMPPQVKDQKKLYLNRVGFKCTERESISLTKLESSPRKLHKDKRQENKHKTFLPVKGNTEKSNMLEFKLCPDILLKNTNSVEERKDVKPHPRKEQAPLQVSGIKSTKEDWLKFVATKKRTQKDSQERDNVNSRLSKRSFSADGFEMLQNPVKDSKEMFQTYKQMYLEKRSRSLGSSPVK

Row | Target | log2 fold change
1 | RELA (UniProt Q04206) | inactive: 0.031
2 | RHD (UniProt Q02161) | inactive: 0.181
3 | RBBP5 isoform 2 (UniProt Q15291) | inactive: -0.282
4 | RBM18 (UniProt Q96H35) | inactive: 0.03
5 | RBBP4 isoform 4 (UniProt Q09028) | inactive: -0.066
6 | RBL2 (UniProt Q08999) | inactive: 0.001
7 | RC3H2 (UniProt Q9HBD1) | inactive: 0.024
8 | RBKS (UniProt Q9H477) | inactive: 0.136
9 | RCOR2 (UniProt Q8IZ40) | inactive: 0.049
10 | RBM12B (UniProt Q8IXT5) | inactive: -0.209
11 | RHBDD2 isoform 2 (UniProt Q6NTF9) | inactive: -0.043
12 | RESF1 (UniProt Q9HCM1) | inactive: 0.077

compound: C=CC(=O)N1CCC[C@@H](n2nc(-c3ccc(Oc4ccccc4)cc3)c3c(N)ncnc32)C1 [ibrutinib]; experiment: as above
Method in brief: as §1

Row | Target | log2 fold change
13 | RHBDD1 (UniProt Q8TEB9) | inactive: -0.059
14 | RBMY1E (UniProt A6NEQ0) | inactive: -0.007
15 | RFX3 (UniProt P48380) | inactive: -0.053
16 | RELA (UniProt Q04206) | inactive: -0.004
17 | RFX2 (UniProt P48378) | inactive: -0.151
18 | RBBP5 isoform 2 (UniProt Q15291) | inactive: 0.07
19 | RBL2 (UniProt Q08999) | inactive: 0.014
20 | RBM41 (UniProt Q96IZ5) | inactive: 0.072
21 | RBP4 (UniProt P02753) | inactive: 0.069
22 | RBBP4 isoform 2 (UniProt Q09028) | inactive: 0.003
23 | RBM12B (UniProt Q8IXT5) | inactive: -0.279
24 | RASSF7 (UniProt Q02833) | inactive: -0.049

compound: CC(=O)c1cnc2ccc(-c3cc(Cl)c(O)c(Cl)c3)nc2c1N[C@H]1CC[C@H](CN(C)C)CC1; experiment: as above
Method in brief: as §1

Row | Target | log2 fold change
25 | RBM45 (UniProt Q8IUH3) | inactive: -0.077
26 | RHBDD1 (UniProt Q8TEB9) | active: -0.518
27 | RBMY1E (UniProt A6NEQ0) | inactive: -0.138
28 | RELA (UniProt Q04206) | inactive: -0.025
29 | RFX2 (UniProt P48378) | inactive: 0.012
30 | RBBP5 isoform 2 (UniProt Q15291) | inactive: 0.003
31 | RBBP4 isoform 4 (UniProt Q09028) | inactive: 0.155
32 | RBL2 (UniProt Q08999) | inactive: -0.061
33 | RC3H2 (UniProt Q9HBD1) | inactive: -0.146
34 | RASSF3 (UniProt Q86WH2) | inactive: 0.128
35 | RBBP4 isoform 2 (UniProt Q09028) | inactive: -0.068
36 | RELCH (UniProt Q9P260) | inactive: -0.182

compound: CC(C)(C)Cn1c(N)nc2ccc(-c3[nH]c(C(C)(C)C)nc3-c3ccc(F)cc3)nc21 [ralimetinib]; experiment: as above
Method in brief: as §1

Row | Target | log2 fold change
37 | RELA (UniProt Q04206) | inactive: 0.03
38 | RHD (UniProt Q02161) | inactive: -0.016
39 | RBBP5 isoform 2 (UniProt Q15291) | inactive: 0.054
40 | RBM18 (UniProt Q96H35) | inactive: 0.036
41 | RBBP4 isoform 4 (UniProt Q09028) | inactive: 0.145
42 | RBL2 (UniProt Q08999) | inactive: 0.055
43 | RC3H2 (UniProt Q9HBD1) | inactive: 0.128
44 | RBKS (UniProt Q9H477) | inactive: 0.027
45 | RCOR2 (UniProt Q8IZ40) | inactive: -0.021
46 | RBM12B (UniProt Q8IXT5) | inactive: 0.106
47 | RHBDD2 isoform 2 (UniProt Q6NTF9) | inactive: 0.012
48 | RESF1 (UniProt Q9HCM1) | inactive: -0.016

compound: CC(C)(O)CC(=O)NCCn1ccc2ncnc(Nc3ccc(Oc4cccc(C(F)(F)F)c4)c(Cl)c3)c21; experiment: as above
Method in brief: as §1

Row | Target | log2 fold change
49 | RELA (UniProt Q04206) | inactive: -0.037
50 | RHD (UniProt Q02161) | inactive: -0.141
51 | RBBP5 isoform 2 (UniProt Q15291) | inactive: 0.026
52 | RBM18 (UniProt Q96H35) | inactive: -0.018
53 | RBBP4 isoform 4 (UniProt Q09028) | inactive: 0.101
54 | RBL2 (UniProt Q08999) | inactive: -0.018
55 | RC3H2 (UniProt Q9HBD1) | inactive: -0.051
56 | RBKS (UniProt Q9H477) | inactive: -0.189
57 | RCOR2 (UniProt Q8IZ40) | inactive: -0.04
58 | RBM12B (UniProt Q8IXT5) | inactive: 0.169
59 | RHBDD2 isoform 2 (UniProt Q6NTF9) | inactive: 0.019
60 | RESF1 (UniProt Q9HCM1) | inactive: 0.044

compound: CC(C)C1=C2N=C(C=C(N2N=C1)NCC3=CC=CC=C3)NCCCCCCN; experiment: as above
Method in brief: as §1

Row | Target | log2 fold change
61 | RELA (UniProt Q04206) | inactive: 0.031
62 | RELL1 (UniProt Q8IUW5) | inactive: 0.073
63 | RHBDD2 isoform 2 (UniProt Q6NTF9) | inactive: -0.221

compound: CC1=C(C(CC(=O)N1)C2=CC=C(C=C2)C(F)(F)F)C(=O)NC3=C(C=C4C(=C3)C=NN4)F; experiment: as above
Method in brief: as §1

Row | Target | log2 fold change
64 | RBM45 (UniProt Q8IUH3) | inactive: -0.127
65 | RFX3 (UniProt P48380) | inactive: -0.033
66 | RELA (UniProt Q04206) | inactive: -0.01
67 | RBBP5 isoform 2 (UniProt Q15291) | inactive: -0.297
68 | RBM18 (UniProt Q96H35) | inactive: -0.277
69 | RASGRP2 isoform 2 (UniProt Q7LDG7) | inactive: 0.029
70 | RBBP4 isoform 4 (UniProt Q09028) | inactive: 0.045
71 | RBL2 (UniProt Q08999) | inactive: -0.047
72 | RBM41 (UniProt Q96IZ5) | inactive: -0.032
73 | RGS19 (UniProt P49795) | inactive: 0.045
74 | RBBP7 (UniProt C9J7L0) | inactive: -0.187
75 | RBM12B (UniProt Q8IXT5) | inactive: 0.042
76 | RFNG (UniProt Q9Y644) | inactive: 0.023
77 | RASSF7 (UniProt Q02833) | inactive: 0.015
